PubChem BioAssay AID743121, NCATS – 2013
The deposit covers about 26,000 reagents; shown is an unselected part. Of all reagents, 167 (0.63%) were called active. 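Calls are per gene from RSA p-values that are not deposited; an individual active-marked siRNA can sensitise only weakly.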 Not all columns of the deposit are shown.

Test: 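Knock-downs that sensitise breast cancer cells to camptothecin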 (primary screen)
Cell system: MDA-MB-231 cells, a human breast cancer line
Reagents: single siRNA against human genes, 20 nM siRNA (0.8 pmol per well)
Timing: 120 h (drug added 48 h after transfection, read 72 h later)
Treatment: camptothecin 20 nM (about EC30) for 72 h; vehicle 0.1% DMSO in parallel plates
Read-out: 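CellTiter-Glo ATP signal, scaled to control siRNA as percent viability; sensitisation given as log2 of untreated divided by camptothecin-treated viability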
Direction: log2 vehicle/camptothecin viability: higher = stronger sensitisation to camptothecin
Active means: 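Each gene scored by redundant siRNA activity (RSA) over its individual siRNA ratios; a gene is called active at p < 0.001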

Against PXDNL (peroxidasin like) [SID164570866], the values are log2 vehicle/camptothecin viability -0.136; inactive.
After knock-down of PXDNL (peroxidasin like) [SID164570867], the record shows log2 vehicle/camptothecin viability 0.0261; inactive.
After knock-down of PXDNL (peroxidasin like) [SID164570868], the record shows log2 vehicle/camptothecin viability -0.391; inactive.
Depletion of PXDNL (peroxidasin like) [SID164570869] came out at: log2 vehicle/camptothecin viability -0.554; inactive.
ETV6 (ETS variant transcription factor 6) [SID164363891] gave log2 vehicle/camptothecin viability 0.0893; inactive.
Knock-down of ETV6 (ETS variant transcription factor 6) [SID164363892] resulted in: log2 vehicle/camptothecin viability -0.125; inactive.
With knock-down of ETV6 (ETS variant transcription factor 6) [SID164363893] the results were log2 vehicle/camptothecin viability 0.0304; inactive.
With knock-down of ETV6 (ETS variant transcription factor 6) [SID164363894] the results were log2 vehicle/camptothecin viability 0.0231; inactive.
KCNJ10 (potassium inwardly rectifying channel subfamily J member 10) [SID164372479] showed log2 vehicle/camptothecin viability -0.366; inactive.
KCNJ10 (potassium inwardly rectifying channel subfamily J member 10) [SID164372480] gave log2 vehicle/camptothecin viability 0.355; inactive.
With knock-down of KCNJ10 (potassium inwardly rectifying channel subfamily J member 10) [SID164372481] the results were log2 vehicle/camptothecin viability 0.045; inactive.
After knock-down of KCNJ10 (potassium inwardly rectifying channel subfamily J member 10) [SID164372482], the record shows log2 vehicle/camptothecin viability -0.224; inactive.
PTPRO (protein tyrosine phosphatase receptor type O) [SID164384047] scored log2 vehicle/camptothecin viability 0.141; active.
PTPRO (protein tyrosine phosphatase receptor type O) [SID164384049] showed log2 vehicle/camptothecin viability 0.576; active.
After knock-down of PTPRO (protein tyrosine phosphatase receptor type O) [SID164384050] the results were log2 vehicle/camptothecin viability 0.326; active.
PTPRO (protein tyrosine phosphatase receptor type O) [SID164384054] showed log2 vehicle/camptothecin viability 0.239; active.

Targets listed so far whose gene name starts with K or k:
KCNJ10 (potassium inwardly rectifying channel subfamily J member 10) [SID164372479] → log2 vehicle/camptothecin viability: -0.366; Outcome: inactive
KCNJ10 (potassium inwardly rectifying channel subfamily J member 10) [SID164372480] → log2 vehicle/camptothecin viability: 0.355; Outcome: inactive
KCNJ10 (potassium inwardly rectifying channel subfamily J member 10) [SID164372481] → log2 vehicle/camptothecin viability: 0.045; Outcome: inactive
KCNJ10 (potassium inwardly rectifying channel subfamily J member 10) [SID164372482] → log2 vehicle/camptothecin viability: -0.224; Outcome: inactive

More reagents follow.
Depletion of CNR2 (cannabinoid receptor 2) [SID164359033] came out at: log2 vehicle/camptothecin viability -0.326; inactive.
For CNR2 (cannabinoid receptor 2) [SID164359034], the entry reads log2 vehicle/camptothecin viability 0.138; inactive.
With knock-down of CNR2 (cannabinoid receptor 2) [SID164359035], the screen gave log2 vehicle/camptothecin viability -0.2; inactive.
For CNR2 (cannabinoid receptor 2) [SID164359036] the deposit lists log2 vehicle/camptothecin viability -0.127; inactive.
Against SLC25A6 [SID164353408] the deposit lists log2 vehicle/camptothecin viability -0.545; inactive.
For SLC25A6 [SID164353409] the deposit lists log2 vehicle/camptothecin viability 0.208; inactive.
Against SLC25A6 [SID164353410], the values are log2 vehicle/camptothecin viability -0.577; inactive.
SLC25A6 [SID164353411] scored log2 vehicle/camptothecin viability 0.229; inactive.
With knock-down of LHX9 (LIM homeobox 9) [SID164492005], the screen gave log2 vehicle/camptothecin viability -0.142; inactive.
Silencing of LHX9 (LIM homeobox 9) [SID164492007] resulted in: log2 vehicle/camptothecin viability -0.622; inactive.
For LHX9 (LIM homeobox 9) [SID164492008], the values are log2 vehicle/camptothecin viability 0.016; inactive.
After knock-down of LHX9 (LIM homeobox 9) [SID164492009], the screen gave log2 vehicle/camptothecin viability 0.133; inactive.
GOSR2 (golgi SNAP receptor complex member 2) [SID164404608] showed log2 vehicle/camptothecin viability -0.566; inactive.
Silencing of GOSR2 (golgi SNAP receptor complex member 2) [SID164404609] resulted in: log2 vehicle/camptothecin viability -0.403; inactive.
Against GOSR2 (golgi SNAP receptor complex member 2) [SID164404611] the deposit lists log2 vehicle/camptothecin viability 0.691; inactive.
For GOSR2 (golgi SNAP receptor complex member 2) [SID164404612] the deposit lists log2 vehicle/camptothecin viability -0.398; inactive.
Silencing of GOSR2 (golgi SNAP receptor complex member 2) [SID164404617] gave: log2 vehicle/camptothecin viability -0.25; inactive.
Silencing of GOSR2 (golgi SNAP receptor complex member 2) [SID164404618] gave: log2 vehicle/camptothecin viability -0.196; inactive.
GOSR2 (golgi SNAP receptor complex member 2) [SID164404619] scored log2 vehicle/camptothecin viability -0.0335; inactive.
With knock-down of GOSR2 (golgi SNAP receptor complex member 2) [SID164404620], the screen gave log2 vehicle/camptothecin viability -0.223; inactive.
